Results are given in words; binding and its absence hold for the method and conditions named. Binding seen in cells or lysates may run through a third protein. Some entries that bind do so weakly or less than the wild type.
Molecular target: ZO-1 (dog (endogenous in MDCK)) (UniProt O97758)
Test: co-IP; data not shown; MDCK cells during junction formation (calcium switch) compared with stable monolayers; which protein was precipitated is not told

By UniProt entry, the sequences of proteins in these tests, tags left out.
UniProt O97758: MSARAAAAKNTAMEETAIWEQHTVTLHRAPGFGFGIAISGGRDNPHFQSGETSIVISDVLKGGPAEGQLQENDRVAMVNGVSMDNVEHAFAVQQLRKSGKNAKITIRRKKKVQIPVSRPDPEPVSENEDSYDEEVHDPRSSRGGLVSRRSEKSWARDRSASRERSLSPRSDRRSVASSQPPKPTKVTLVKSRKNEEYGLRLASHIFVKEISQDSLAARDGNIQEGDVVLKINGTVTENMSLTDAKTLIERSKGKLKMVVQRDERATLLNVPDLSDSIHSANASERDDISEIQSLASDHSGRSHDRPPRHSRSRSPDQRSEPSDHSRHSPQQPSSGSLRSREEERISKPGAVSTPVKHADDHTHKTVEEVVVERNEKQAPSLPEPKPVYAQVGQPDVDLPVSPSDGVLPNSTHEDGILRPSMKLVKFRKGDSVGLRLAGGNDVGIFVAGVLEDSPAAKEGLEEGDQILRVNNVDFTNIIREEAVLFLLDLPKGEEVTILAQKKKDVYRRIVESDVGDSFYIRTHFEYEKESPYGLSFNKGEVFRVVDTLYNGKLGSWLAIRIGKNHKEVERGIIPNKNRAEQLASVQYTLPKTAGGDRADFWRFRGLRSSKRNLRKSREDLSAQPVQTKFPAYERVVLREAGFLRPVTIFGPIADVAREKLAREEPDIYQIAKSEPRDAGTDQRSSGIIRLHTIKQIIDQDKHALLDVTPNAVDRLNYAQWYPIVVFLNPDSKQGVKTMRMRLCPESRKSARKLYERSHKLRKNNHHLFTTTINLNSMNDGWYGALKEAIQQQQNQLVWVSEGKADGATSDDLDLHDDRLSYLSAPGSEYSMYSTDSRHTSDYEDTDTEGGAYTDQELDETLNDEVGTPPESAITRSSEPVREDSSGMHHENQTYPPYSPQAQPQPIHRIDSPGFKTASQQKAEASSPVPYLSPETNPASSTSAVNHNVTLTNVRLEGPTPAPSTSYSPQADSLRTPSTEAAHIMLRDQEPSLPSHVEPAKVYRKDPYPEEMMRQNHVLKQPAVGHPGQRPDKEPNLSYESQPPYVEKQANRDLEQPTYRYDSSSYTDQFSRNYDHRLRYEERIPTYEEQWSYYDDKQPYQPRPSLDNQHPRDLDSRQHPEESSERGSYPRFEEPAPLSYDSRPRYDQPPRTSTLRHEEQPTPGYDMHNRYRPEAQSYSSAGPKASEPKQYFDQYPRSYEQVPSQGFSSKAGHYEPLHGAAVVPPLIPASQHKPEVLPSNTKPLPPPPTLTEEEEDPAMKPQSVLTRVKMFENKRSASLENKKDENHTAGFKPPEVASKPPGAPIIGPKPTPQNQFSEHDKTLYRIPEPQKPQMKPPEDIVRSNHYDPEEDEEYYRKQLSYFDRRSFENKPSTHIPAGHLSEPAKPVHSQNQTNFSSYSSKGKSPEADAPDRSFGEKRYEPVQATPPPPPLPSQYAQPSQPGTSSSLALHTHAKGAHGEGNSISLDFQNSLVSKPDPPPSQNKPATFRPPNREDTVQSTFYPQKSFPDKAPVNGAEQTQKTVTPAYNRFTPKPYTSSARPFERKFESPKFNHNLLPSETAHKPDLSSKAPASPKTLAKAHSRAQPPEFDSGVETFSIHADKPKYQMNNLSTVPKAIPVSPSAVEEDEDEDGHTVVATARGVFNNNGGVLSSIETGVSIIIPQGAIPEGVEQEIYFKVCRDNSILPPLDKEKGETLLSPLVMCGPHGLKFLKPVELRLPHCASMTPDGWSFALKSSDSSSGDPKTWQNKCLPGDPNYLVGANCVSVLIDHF

binding: binds
B1: heat shock protein Apg-2 (protein, UniProt Q2TFN9 1-840)
chain: MSVVGIDLGFQSCYVAVARAGGIETIANEYSDRCTPACISFGPKNRSIGAAAKSQVISNAKNTVQGFKRFHGRAFSDPFVEAEKSNLAYDIVQLPTGLTGIKVKYMEEERNFTTEQVTAMLLSKLKETAESVLKKPVVDCVVSVPCFYTDAERRSVMDATQIAGLNCLRLMNETTAVALAYGIYKQDLPALEEKPRNVVFVDMGHSSYQVSVCAFNRGKLKVLATAFDTTLGGRKFDEVLVNHFCEEFGKKYKLDIKSKIRALLRLSQECEKLKKLMSANASDLPLSIECFMNDVDVSGTMNRGKFLEMCDDLLARVEPPLRSVLEQAKLRKEDIYAVEIVGGATRIPAVKEKISKFFGKELSTTLNADEAVTRGCALQCAILSPAFKVREFSITDVVPYSISLRWNSPAEEGSSDCEVFTKNHSAPFSKVLTFYRKEPFTLEAYYSSPQDLPYPDPAIAQFLVQKVTPQSDGSSSKVKVKVRVNVHGIFSVSSASLVEVLKFEENEEPMETDQNAKEEEKMQVDQEEPHAEEQQQQTPAENKAESEEMETSQAASKDKKMDQPPQAKKAKVKTSTVDLPIENQLLWQIDREMLNLYIENEGKMIMQDKLKKERNDAKNAVEEYVYEMRDKLSGEYEKFVSEDDRNSFTLKLEDTENWLYEDGEDQPKQVYVDKLAELKNLGQPIKMRFQESEERPKLFEELGKQIQQYMKVISSFKNKEDQYDHLDAADMLKVEKSTNEAMEWMNNKLNLQNKQSLTVDPVVKAKEIEAKIKELMSVCGPIISKPKPKVEPPKEEQKNAEQNGPVDGQGDSPGPQAAEQGTDTAVPSDSDKKLPEMDID

Source: article PMC2211299
